Data published in doi:10.1101/2025.05.28.656646.
These are yes or no findings as the source states them, for the method shown. Binding seen in cells or lysates may run through a third protein. These calls come from enrichment with a bait or labelling near it, and not all partners need be listed.

Amino acid sequences for entries named in this document (tags omitted).
UniProt P08758: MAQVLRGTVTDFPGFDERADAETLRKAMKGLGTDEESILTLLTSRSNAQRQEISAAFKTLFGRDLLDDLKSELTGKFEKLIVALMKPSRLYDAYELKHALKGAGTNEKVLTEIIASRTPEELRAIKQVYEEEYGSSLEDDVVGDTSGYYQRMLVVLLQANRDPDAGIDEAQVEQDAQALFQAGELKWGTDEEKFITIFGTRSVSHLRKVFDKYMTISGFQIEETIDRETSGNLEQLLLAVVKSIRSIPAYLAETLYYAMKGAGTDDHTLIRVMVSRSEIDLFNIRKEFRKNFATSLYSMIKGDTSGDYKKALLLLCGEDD

Target: Myc-tagged WT-PKCα (human) (UniProt P17252)
Assay: affinity purification with mass spectrometry

Substance: Annexin V (from UniProt P08758 1-320)
- binding: binds
